Source: patent US20100256145A1, “USE OF KCNQ POTASSIUM CHANNEL OPENERS FOR REDUCING SYMPTOMS OF OR TREATING DISORDERS OR CONDITIONS WHEREIN THE DOPAMINERGIC SYSTEM IS DISRUPTED” (H. LUNDBECK A/S, priority 2007, published 2010)

tested on: sensitised amphetamine response (hyperactivity) in mice; test: Sensitised behavioural response to amphetamine in mice; format: in vivo, mouse; conditions: ratio of the ED50 for baseline motility and the ED50 for the sensitised response

Row | SMILES | Therapeutic index
1 | Cc1cc(N2CCOCC2)cc(C)c1NC(=O)CC1CCCC1 | 2
2 | Cc1cc(N2CCOCC2)cc(C)c1NC(=O)CC(C)(C)C | >1
3 | Cc1nc(N2CCOCC2)nc(C)c1NC(=O)CC1CCCC1 [2-Cyclopentyl-N-(4,6-dimethyl-2-morpholin-4-yl-pyrimidin-5-yl)-acetamide] | 3
4 | COc1cc(N2CCOCC2)cc(C)c1NC(=O)CC1CCCC1 [Compound 2] | 2
5 | Cc1cc(N2CCOCC2)nc(C)c1NC(=O)CC(C)(C)C [Compound 3, N-(2,4-dimethyl-6-morpholin-4-yl-pyridin-3-yl)-3,3-dimethylbutyramide] | 2
6 | CCCCCC(=O)Nc1c(F)cc(N2CCOCC2)cc1F [Hexanoic acid (2,6-difluoro-4-morpholin-4-yl-phenyl)-amide] | >2
7 | CCC(=O)Nc1c(Br)cc(N2CCOCC2)cc1C(F)(F)F [N-(2-Bromo-4-morpholin-4-yl-6-trifluoromethyl-phenyl)-propionamide] | 2
8 | Cc1nc(N2CCOCC2)nc(C)c1NC(=O)Cc1ccc(F)cc1 [N-(4,6-Dimethyl-2-morpholin-4-yl-pyrimidin-5-yl)-2-(4-fluoro-phenyl)-acetamide] | 5
9 | CCOC(=O)Nc1ccc(NCc2c(C)cc(C)cc2C)cc1N [[2-Amino-4-(2,4,6-trimethyl-benzylamino)-phenyl]-carbamic acid ethyl ester] | 3
